The results in this text go back to patent publication CN110746505A.

By UniProt entry, the sequences of proteins in these tests, tags left out. Where a name states a change or a piece, a line headed by the entry shows the natural chain unless it says otherwise. Chains listed by the source or under a name are the forms on record and can include a tag or linker.
间皮素-生物素 (Q13421, form named): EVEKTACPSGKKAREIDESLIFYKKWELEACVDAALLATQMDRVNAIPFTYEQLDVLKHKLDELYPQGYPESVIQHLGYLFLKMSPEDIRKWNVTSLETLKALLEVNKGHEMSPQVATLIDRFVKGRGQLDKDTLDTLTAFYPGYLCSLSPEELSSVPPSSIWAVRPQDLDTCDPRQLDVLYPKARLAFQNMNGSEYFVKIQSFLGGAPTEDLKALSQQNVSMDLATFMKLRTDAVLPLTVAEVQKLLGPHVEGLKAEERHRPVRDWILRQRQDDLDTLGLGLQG

For this test, the target named is 间皮素-生物素 (UniProt Q13421). Briefly: flow cytometry, CAR-T cells stained with 1 ug mesothelin-biotin and streptavidin-PE. Background: In flow cytometry, cells or beads pass a laser one at a time.

Changes are numbered by the printed parent chain. These are yes or no findings as the source states them, for the method shown. Some binding calls cover weakened binding; strength is not graded here.

B1: meso3-CAR (protein)
chain: EVQLVESGGGLVQPGGSLRLSCAASGFDLGFYFYACWVRQAPGKGLEWVSCIYTAGSGSTYYASWAKGRFTISRDNSKNTLYLQMNSLRAEDTAVYYCARSTANTRSTYYLNLWGQGTLVTVSSGGGGSGGGGSGGGGSDIQMTQSPSSLSASVGDRVTITCQASQRISSYLSWYQQKPGKVPKLLIYGASTLASGVPSRFSGSGSGTDFTLTISSLQPEDVATYYCQSYAYFDSNNWHAFGGGTKVEIKESKYGPPCPPCPAPPVAGPSVFLFPPKPKDTLMISRTPEVTCVVVDVSQEDPEVQFNWYVDGVEVHNAKTKPREEQFQSTYRVVSVLTVLHQDWLNGKEYKCKVSNKGLPSSIEKTISKAKGQPREPQVYTLPPSQEEMTKNQVSLTCLVKGFYPSDIAVEWESNGQPENNYKTTPPVLDSDGSFFLYSRLTVDKSRWQEGNVFSCSVMHEALHNHYTQKSLSLSLGKPFWVLVVVGGVLACYSLLVTVAFIIFWVRSKRSRLLHSDYMNMTPRRPGPTRKHYQPYAPPRDFAAYRSRVKFSRSADAPAYQQGQNQLYNELNLGRREEYDVLDKRRGRDPEMGGKPRRKNPQEGLYNELQKDKMAEAYSEIGMKGERRRGKGHDGLYQGLSTATKDTYDALHMQALPPR
Take B1: the binding result is on record as “binds”.

B2: meso3-60F-CAR (protein)
chain: B1 chain with V38F
For the molecule B2, the binding result is “binds”.

B3: meso3-67E-CAR (protein)
chain: B1 chain with G45E
With B3, the binding result is reported as “binds”.

B4: meso3-68R-CAR (protein)
chain: B1 chain with L46R
For B4, the binding result is listed as “binds”.

B5: meso3-70G-CAR (protein)
chain: B1 chain with W48G
In the case of B5, the binding entry is “binds”.
